Results reported in paper PMC8748873.
These are yes or no findings as the source states them, for the method shown. In cells and extracts the contact can be indirect. For part of these data: A result given as binding can be weak or reduced; the word gives no strength.

T1: RONIN (THAP Domain Containing 11) (mouse (endogenous in embryonic brain)) (UniProt Q9JJD0)
T1 sequence: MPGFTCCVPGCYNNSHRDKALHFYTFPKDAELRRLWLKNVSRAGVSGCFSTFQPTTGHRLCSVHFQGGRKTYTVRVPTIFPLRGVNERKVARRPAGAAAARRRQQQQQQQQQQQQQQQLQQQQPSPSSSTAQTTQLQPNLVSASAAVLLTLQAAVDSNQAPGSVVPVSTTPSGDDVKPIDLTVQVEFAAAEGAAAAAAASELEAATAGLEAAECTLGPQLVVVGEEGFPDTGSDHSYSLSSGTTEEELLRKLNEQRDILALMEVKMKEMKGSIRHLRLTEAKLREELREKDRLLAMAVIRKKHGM

T2: RONIN F80L (mouse (endogenous in embryonic brain)) (UniProt Q9JJD0)
T2 sequence: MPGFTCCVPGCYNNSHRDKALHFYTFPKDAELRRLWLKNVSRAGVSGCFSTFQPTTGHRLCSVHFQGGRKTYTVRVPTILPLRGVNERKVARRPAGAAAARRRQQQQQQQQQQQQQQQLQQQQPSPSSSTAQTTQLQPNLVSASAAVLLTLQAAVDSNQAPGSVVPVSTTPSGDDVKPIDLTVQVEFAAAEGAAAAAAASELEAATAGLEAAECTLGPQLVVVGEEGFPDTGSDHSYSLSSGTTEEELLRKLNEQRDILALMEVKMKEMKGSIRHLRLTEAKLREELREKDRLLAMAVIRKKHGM


How the values were obtained:
[1] = target: T1, RONIN (THAP Domain Containing 11) (mouse (endogenous in embryonic brain)); assay: co-IP; endogenous proteins from O9-1 cranial neural crest cell line lysate; 500 ug lysate with 1 ug antibody overnight at 4 °C, Protein A/G magnetic beads, western blot
[2] = target: T2, RONIN F80L (mouse (endogenous in embryonic brain)); assay: co-IP; endogenous proteins from embryonic mouse brain lysate (wild type, Hcfc1 A115V/Y or Ronin F80L/F80L); 500 ug lysate with 1 ug antibody overnight at 4 °C, Protein A/G magnetic beads, western blot
[3] = target: Host Cell Factor C1 (HCFC1) (mouse (endogenous in embryonic brain)); assay: co-IP; endogenous proteins from embryonic mouse brain and retinae; antibody overnight at 4 °C, Protein A/G magnetic beads, western blot

Row | Molecule | binding [1] | binding [2] | binding [3]
1 | Host Cell Factor C1 (HCFC1) (mouse (endogenous in embryonic brain)) | binds | binds | –
2 | ZNF143 (protein, UniProt O70230 1-638) MLLAQINRDSQGMTEFPGGGMEAQHVTLCLTEAVTVADGDNLENMEGVSLQAVTLADGSTAYIQHNSKDGRLIDGQVIQLEDGSAAYVQHVPIPKSTGDSLRLEDGQAVQLEDGTTAFIHHTSKDSYDQSSLQAVQLEDGTTAYIHHAVQVPQSDTILAIQADGTVAGLHTGDATIDPDTISALEQYAAKVSIDGSDGVTSTGMIGENEQEKKMQIVLQGHATRVTPKSQQSGEKAFRCKYDGCGKLYTTAHHLKVHERSHTGDRPYQCEHSGCGKAFATGYGLKSHFRTHTGEKPYRCSEDNCTKSFKTSGDLQKHIRTHTGERPFKCPIEGCGRSFTTSNIRKVHIRTHTGERPYYCTEPGCGRAFASATNYKNHVRIHTGEKPYVCTVPGCDKRFTEYSSLYKHHVVHTHSKPYNCNHCGKTYKQISTLAMHKRTAHNDTEPIEEEQEAFFEPPPGQGDDVLKGSQITYVTGVDGEDIVSTQVATVTQSGLSQQVTLISQDGTQHVNISQADMQAIGNTITMVTQDGTPITVPTHDAVISSAGTHSVAMVTAEGTEGQQVAIVAQDLAAFHTASSEMGHQQHSHHLVTTETRPLTLVATSNGTQIAVQLGEQPSLEEAIRIASRIQQGETPGLDD | – | – | no binding
